Measurements taken from publication PMC4857127.

Amino acid sequences for entries named in this document (tags omitted). A change or cut given only in a name is not applied to a line headed by its entry. Residues count along the entry.
UniProt O60602, residues 691-837: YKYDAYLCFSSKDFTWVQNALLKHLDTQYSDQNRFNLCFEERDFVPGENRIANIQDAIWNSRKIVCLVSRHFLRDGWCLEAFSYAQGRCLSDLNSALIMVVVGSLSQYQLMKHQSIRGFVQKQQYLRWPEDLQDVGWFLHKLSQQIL
UniProt Q96PH1: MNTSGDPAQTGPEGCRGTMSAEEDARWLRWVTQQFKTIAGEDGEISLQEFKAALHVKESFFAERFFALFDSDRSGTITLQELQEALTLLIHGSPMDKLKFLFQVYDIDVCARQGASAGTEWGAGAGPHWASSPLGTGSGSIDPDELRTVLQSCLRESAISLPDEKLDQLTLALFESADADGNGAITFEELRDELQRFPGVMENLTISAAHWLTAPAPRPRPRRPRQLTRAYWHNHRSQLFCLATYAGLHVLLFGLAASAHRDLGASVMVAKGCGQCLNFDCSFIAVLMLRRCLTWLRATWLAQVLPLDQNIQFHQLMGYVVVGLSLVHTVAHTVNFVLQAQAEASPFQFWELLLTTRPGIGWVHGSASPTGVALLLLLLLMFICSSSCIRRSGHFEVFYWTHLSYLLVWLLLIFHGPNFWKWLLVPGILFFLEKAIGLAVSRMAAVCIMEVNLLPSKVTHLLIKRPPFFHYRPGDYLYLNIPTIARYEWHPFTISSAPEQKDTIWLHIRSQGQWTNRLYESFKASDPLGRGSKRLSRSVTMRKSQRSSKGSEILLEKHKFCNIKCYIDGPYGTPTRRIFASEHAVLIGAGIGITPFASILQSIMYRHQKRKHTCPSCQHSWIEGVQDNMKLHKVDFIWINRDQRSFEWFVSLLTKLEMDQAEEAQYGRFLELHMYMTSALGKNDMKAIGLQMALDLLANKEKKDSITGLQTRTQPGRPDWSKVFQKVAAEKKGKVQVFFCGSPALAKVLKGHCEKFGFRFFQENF

Target: Toll/Interleukin-1 receptor (TIR, AA 691–837) domain of TLR5 (UniProt O60602)
Assay: two-hybrid; yeast expressing pB42AD-TIR-TLR5 with pLexA-Nox C-terminal regions; after selection for Trp+ and His+, Leu-dependent growth and β-galactosidase activity (X-gal) in SD/galactose/raffinose medium

binding: no binding
Substance: Nox5 COOH-terminal region (AA 395–720) (from UniProt Q96PH1) (domain or fragment)

No constants are given. Whether binding was seen depends on the method and setting.
